Experimental data from PMC12670400, “LEKTI-Grafted Sunflower Trypsin Inhibitor: A Potential Therapeutic for Skin Diseases” (Journal of Medicinal Chemistry, 2025).
Results are given in words; binding and its absence hold for the method and conditions named.

Molecular target: T1, KLK8 (UniProt O60259 33-260)
T1 construct: Kallikrein 8 (KLK8); construct and source are in the Supporting Information
T1 sequence (looked up): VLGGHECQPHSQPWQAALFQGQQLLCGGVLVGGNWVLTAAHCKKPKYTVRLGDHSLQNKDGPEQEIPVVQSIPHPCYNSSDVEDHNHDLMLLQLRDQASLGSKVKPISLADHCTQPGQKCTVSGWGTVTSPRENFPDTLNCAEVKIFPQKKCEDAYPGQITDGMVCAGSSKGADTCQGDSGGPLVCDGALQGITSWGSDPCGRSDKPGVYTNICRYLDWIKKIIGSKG
Assay: enzyme inhibition assay (fluorogenic substrate); selectivity: inhibition of KLK7, KLK8 or KLK14 activity by the peptide, n = 3; substrates and conditions in the Supporting Information; both purified

binding: no binding (tested: >1 μm)
Binder: GFCTRSNPPECWPN (head-to-tail cyclised backbone; oxidised (disulfide)) [LEKTI-grafted SFTI analogue, lead 7]
